{
  "source": "paper PMC9820341",
  "target": "recombinant mouse prion protein (mouse) (UniProt P04925)",
  "assay": "thioflavin T amyloid formation assay (PAFA); both purified",
  "note": "No constants are given. Whether binding was seen depends on the method and setting.",
  "data": [
    {"substance": "recombinant mouse prion protein (from UniProt P04925 23-230)", "values": [
      {"measurement": "binding", "value": "no binding (condition: with > 0.01 mg/mL CpV extract)"}
    ]}
  ]
}
